Two substances from PMC10348911 can be followed below.

Chains of the proteins cited; added tags and fusions are not shown.
UniProt P24385: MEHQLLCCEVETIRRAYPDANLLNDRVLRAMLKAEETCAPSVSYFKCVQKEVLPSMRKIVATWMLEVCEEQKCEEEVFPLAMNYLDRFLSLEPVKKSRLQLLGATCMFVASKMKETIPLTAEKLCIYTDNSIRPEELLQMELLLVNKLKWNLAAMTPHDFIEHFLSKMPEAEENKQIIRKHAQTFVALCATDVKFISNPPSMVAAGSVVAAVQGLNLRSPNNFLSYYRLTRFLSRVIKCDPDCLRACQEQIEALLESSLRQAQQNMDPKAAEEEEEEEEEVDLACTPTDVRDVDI

No constants are given. Whether binding was seen depends on the method and setting. In cells and extracts the contact can be indirect. For some assays here: Tags and fused reporters may be left off the sequences shown.

The target in test [1] is T1, Flag-tagged USP13 (ubiquitin-specific protease 13), wild type (UniProt Q92995).
T1 sequence: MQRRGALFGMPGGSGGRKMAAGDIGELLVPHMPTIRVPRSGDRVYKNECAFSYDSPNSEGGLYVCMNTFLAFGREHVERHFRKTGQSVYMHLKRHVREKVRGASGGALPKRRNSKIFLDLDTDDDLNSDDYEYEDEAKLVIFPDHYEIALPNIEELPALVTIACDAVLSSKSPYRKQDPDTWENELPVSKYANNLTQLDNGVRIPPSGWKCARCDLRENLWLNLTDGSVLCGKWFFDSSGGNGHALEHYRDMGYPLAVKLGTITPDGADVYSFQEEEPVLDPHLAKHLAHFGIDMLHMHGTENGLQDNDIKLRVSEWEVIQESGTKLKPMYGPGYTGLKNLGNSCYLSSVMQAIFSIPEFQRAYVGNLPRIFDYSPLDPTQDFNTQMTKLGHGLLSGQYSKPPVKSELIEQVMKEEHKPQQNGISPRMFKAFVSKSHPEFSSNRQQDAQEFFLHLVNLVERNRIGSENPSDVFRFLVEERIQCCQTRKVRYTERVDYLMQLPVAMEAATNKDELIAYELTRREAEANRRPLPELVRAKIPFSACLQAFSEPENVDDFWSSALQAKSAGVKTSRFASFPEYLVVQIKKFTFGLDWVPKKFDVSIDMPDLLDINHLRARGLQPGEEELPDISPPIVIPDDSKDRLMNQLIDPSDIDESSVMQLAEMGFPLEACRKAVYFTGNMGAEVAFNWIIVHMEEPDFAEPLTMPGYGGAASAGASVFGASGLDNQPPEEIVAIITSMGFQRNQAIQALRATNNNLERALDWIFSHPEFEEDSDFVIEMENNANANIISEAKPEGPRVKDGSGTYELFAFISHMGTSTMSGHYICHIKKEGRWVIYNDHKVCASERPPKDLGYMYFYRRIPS
The test can be described thus: co-IP; exogenous Co-IP: HEK293T or GC cells transfected for 48 h; IP lysis buffer 50 mM Tris-HCl pH 8.0, 150 mM NaCl, 10 mM KCl, 1.5 mM MgCl2, 0.5% NP-40, 10% glycerol, 1 mM EDTA; anti-Flag or anti-Myc antibody, Protein A/G magnetic beads overnight at 4 °C; immunoblot.

Test [2] has as its target Myc-tagged cyclin D1, wild type (UniProt P24385). The test is described as above.

“cyclin D1 C-terminal deletion mutant (domain or fragment)”: the binding result in test [1] is listed as “no binding”.
In the case of “Flag-tagged USP13 truncated mutant containing the USP domain (from UniProt Q92995) (domain or fragment)”, the binding result in test [2] is “no binding”.
